Values quoted from earlier work, collected in US20220175648A1, “TOPICAL FORMULATIONS WITH LIPID-BASED CARRIERS” (KATE ROSE LLC, priority 2020, published 2022).
Some results were stated once for a whole list of compounds, not compound by compound. For at least one compound, name, drawing or mass did not settle the structure.

Details: fold more than alpha-tocopherol

CC(C)=CCC/C(C)=C/CC/C(C)=C/CC[C@]1(C)CCc2cc(O)c(C)c(C)c2O1 [gamma-tocotrienol]
antioxidant activity versus alpha-tocopherol: 40-60 times
